PubChem BioAssay AID720505 – Drosophila RNAi Screening Center | 2013
The screen tested about 20,000 reagents; below is a random part of those with a known target gene and a result. In the full data, about 2,100 (10%) are marked active. 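Raw plate signals without normalisation; calls rest on control-based scores that were not deposited; replicate 2 separates called from uncalled poorly.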 Names joined by + are all predicted targets of the reagent. The record does not give: the amount of reagent, the time to read-out.

Screen: 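Knock-downs that reduce calcium influx once internal stores are emptied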 (primary screen)
Cells: Drosophila S2R+ cells
Knock-down reagent: long dsRNA against Drosophila genes
Conditions: thapsigargin (2 µM) in calcium-free buffer to empty internal stores, then 2 mM calcium added back
Measured: 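Fluo-4 signal in 384-well plates read on a FLIPR after thapsigargin (2 µM, calcium-free) store depletion and 2 mM calcium add-back; unnormalised mean endpoint per well; screen run twice, selected wells retested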
Scale: calcium signal and retest calcium signal: higher = more calcium entry after store depletion
Rule for the call: 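Knock-downs counted as hits when calcium entry dropped relative to STIM1 positive and Rho1 negative controls present on each plate; roughly 1500 genes called, with reductions of differing size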
Calls: active = called as lowering calcium entry; inactive = not called

no.	target gene	dsRNA	calcium signal, replicate 1	calcium signal, replicate 2	retest calcium signal, replicate 1	retest calcium signal, replicate 2	activity call
1	alpha-Est8	DRSC12620	117	137			inactive
2	lft	DRSC02236	179	138			inactive
3	trbd	DRSC16494	95.2	112			inactive
4	CG12116	DRSC17812	243	95			inactive
5	aralar1	DRSC13987					inactive
6	aralar1	DRSC16901	113	136			inactive
7	CG13032	DRSC09912	106	144			inactive
8	kay	DRSC15048	216	140			inactive
9	kay	DRSC16977	81.2	108			inactive
10	asRNA:CR42547 + CG15674	DRSC04264	222	84.4			inactive
11	CG13042	DRSC09923	75.8	87.7			inactive
12	CG9426	DRSC03219	111	108			inactive
13	obst-F	DRSC10805	78.2	132			inactive
14	CG31347	DRSC21582	153	85.8			inactive
15	Obp83b	DRSC12360	114	172			inactive
16	Whamy	DRSC14574	125	119			inactive
17	CG3356	DRSC04358	183	96.2			inactive
18	Ance-4	DRSC07104	139	88.5			inactive
19	CG15602	DRSC19671	110	131			inactive
20	CG14324	DRSC14803	120	140			inactive
21	CG31787	DRSC01632	66.3	220			active
22	CG13527	DRSC04169	114	151			inactive
23	Aptx	DRSC15768	230	190			inactive
24	Sting	DRSC06615	105	238			inactive
25	CG14785	DRSC18604	69.5	93.5			inactive
26	sro	DRSC14469	123	113	6743	140	inactive
27	CdGAPr	DRSC03289	105	89.8			inactive
28	D1	DRSC16638	146	111			inactive
29	CG32548	DRSC19627	99.4	116			inactive
30	CG32548	DRSC19982	184	139			inactive
31	CG6426	DRSC06985	96.8	74.9			inactive
32	orb	DRSC17021	112	183			inactive
33	orb	DRSC23148	109	137			inactive
34	Src42A	DRSC04865	111	126			inactive
35	Src42A	DRSC04915	154	168			inactive
